Measurements reported in PubChem BioAssay AID1508597 (Cure First, 2020)
This is a random part of the about 2,100 reagents, under one of the conditions tested. 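Calls flag viability under 80% in either arm, not effects specific to rucaparib; the reference for percent is not stated.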 A number with no mark means an inactive call. Some reagents were tested in more than one well and are listed for each. The record does not give: the 100% reference.

- Aim: 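Survival screen with siRNA in ovarian cancer cells derived from patients, with or without rucaparib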 (primary screen)
- Cells: human ovarian carcinoma lines grown from tumours: OCI-P5x (papillary serous) and OCI-C5x (clear cell)
- Reagent: siRNA pool against human genes, 1.25 pmol siRNA per well
- Time to read-out: 72 h or 96 h, depending on the cell culture
- Treatment: rucaparib 20 µM (about IC30) or vehicle, present until read-out
- Rucaparib or vehicle: Vehicle
- Cell line: OCI-C5x (clear cell)
- Detection: 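Luminescent ATP-based viability assay read 72 or 96 h after transfection, depending on culture, given as normalised percent viability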
- Scale: viability, normalised: higher = more viable cells remaining
- Active means: 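Active when normalised viability falls below 80 percent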
- Calls: active = viability under 80%; inactive = viability 80% or more

target	technical replicate	viability, normalised (%)
FGFR3 (GeneID 2261)	1	74.8 (active)
FGFR3 (GeneID 2261)	2	56.9 (active)
FGFR3 (GeneID 2261)	3	45.8 (active)
PTTG1 (GeneID 9232)	1	41.3 (active)
PTTG1 (GeneID 9232)	1	57 (active)
PTTG1 (GeneID 9232)	2	40.6 (active)
PTTG1 (GeneID 9232)	2	38.5 (active)
PTTG1 (GeneID 9232)	3	52.7 (active)
PTTG1 (GeneID 9232)	3	41.6 (active)
EPAS1 (GeneID 2034)	1	55.6 (active)
EPAS1 (GeneID 2034)	2	46.5 (active)
EPAS1 (GeneID 2034)	3	53.5 (active)
TRMT6 (GeneID 51605)	1	83.3
TRMT6 (GeneID 51605)	2	93.2
TRMT6 (GeneID 51605)	3	83.3
TDRD1 (GeneID 56165)	1	50.9 (active)
TDRD1 (GeneID 56165)	2	52 (active)
TDRD1 (GeneID 56165)	3	39.4 (active)
DPF3 (GeneID 8110)	1	45.8 (active)
DPF3 (GeneID 8110)	2	46.5 (active)
DPF3 (GeneID 8110)	3	43.6 (active)
FNTA (GeneID 2339)	1	64.6 (active)
FNTA (GeneID 2339)	2	43.9 (active)
FNTA (GeneID 2339)	3	46.5 (active)
PRKX (GeneID 5613)	1	77.1 (active)
PRKX (GeneID 5613)	2	68.9 (active)
PRKX (GeneID 5613)	3	64.3 (active)
PRKAR2A (GeneID 5576)	1	80.8
PRKAR2A (GeneID 5576)	2	57.2 (active)
PRKAR2A (GeneID 5576)	3	67.3 (active)
FANCB (GeneID 2187)	1	47.1 (active)
FANCB (GeneID 2187)	2	55.2 (active)
FANCB (GeneID 2187)	3	59.1 (active)
UCKL1 (GeneID 54963)	1	76 (active)
UCKL1 (GeneID 54963)	2	52.8 (active)
UCKL1 (GeneID 54963)	3	30.8 (active)
NPR1 (GeneID 4881)	1	80.3
NPR1 (GeneID 4881)	2	47.4 (active)
NPR1 (GeneID 4881)	3	71.3 (active)
MED12 (GeneID 9968)	1	33.4 (active)
MED12 (GeneID 9968)	2	45.4 (active)
MED12 (GeneID 9968)	3	46.5 (active)
AIFM2 (GeneID 84883)	1	43.5 (active)
AIFM2 (GeneID 84883)	2	37.9 (active)
AIFM2 (GeneID 84883)	3	34 (active)
DDX27 (GeneID 55661)	1	48.1 (active)
DDX27 (GeneID 55661)	2	44.4 (active)
DDX27 (GeneID 55661)	3	49.4 (active)
CHMP2B (GeneID 25978)	1	42.5 (active)
CHMP2B (GeneID 25978)	2	40.1 (active)
CHMP2B (GeneID 25978)	3	42.3 (active)
MAP3K8 (GeneID 1326)	1	55.5 (active)
MAP3K8 (GeneID 1326)	2	50.5 (active)
MAP3K8 (GeneID 1326)	3	52 (active)
ULK3 (GeneID 25989)	1	59.9 (active)
ULK3 (GeneID 25989)	2	59.1 (active)
ULK3 (GeneID 25989)	3	51.3 (active)
HDAC3 (GeneID 8841)	1	58.9 (active)
HDAC3 (GeneID 8841)	2	54.7 (active)
HDAC3 (GeneID 8841)	3	59.5 (active)
MARK1 (GeneID 4139)	1	50.1 (active)
MARK1 (GeneID 4139)	2	76.7 (active)
MARK1 (GeneID 4139)	3	76.3 (active)
RAPGEF3 (GeneID 10411)	1	56.4 (active)
RAPGEF3 (GeneID 10411)	2	51.1 (active)
RAPGEF3 (GeneID 10411)	3	81.7
DMBT1 (GeneID 1755)	1	42.6 (active)
DMBT1 (GeneID 1755)	2	40.3 (active)
DMBT1 (GeneID 1755)	3	41.6 (active)
NKX2-3 (GeneID 159296)	1	37.9 (active)
NKX2-3 (GeneID 159296)	2	35.4 (active)
NKX2-3 (GeneID 159296)	3	50.2 (active)
CASP3 (GeneID 836)	1	30.5 (active)
CASP3 (GeneID 836)	2	35.3 (active)
CASP3 (GeneID 836)	3	29.6 (active)

In a second layout: entries from further up.
EPAS1 (GeneID 2034), technical replicate 2
- viability, normalised (%): 46.5 (active)

EPAS1 (GeneID 2034), technical replicate 3
- viability, normalised (%): 53.5 (active)

TRMT6 (GeneID 51605), technical replicate 1
- viability, normalised (%): 83.3

TRMT6 (GeneID 51605), technical replicate 2
- viability, normalised (%): 93.2

TRMT6 (GeneID 51605), technical replicate 3
- viability, normalised (%): 83.3

TDRD1 (GeneID 56165), technical replicate 1
- viability, normalised (%): 50.9 (active)

TDRD1 (GeneID 56165), technical replicate 2
- viability, normalised (%): 52 (active)
